In doi:10.1101/2025.04.04.647332:
No constants are given. Whether binding was seen depends on the method and setting. Binding seen in cells or lysates may run through a third protein. Here binding means that the protein was enriched with, or labelled near, the bait; the list need not be complete. Sequences can lack the tags named with a protein.

Chains of the proteins cited; added tags and fusions are not shown.
UniProt P54725: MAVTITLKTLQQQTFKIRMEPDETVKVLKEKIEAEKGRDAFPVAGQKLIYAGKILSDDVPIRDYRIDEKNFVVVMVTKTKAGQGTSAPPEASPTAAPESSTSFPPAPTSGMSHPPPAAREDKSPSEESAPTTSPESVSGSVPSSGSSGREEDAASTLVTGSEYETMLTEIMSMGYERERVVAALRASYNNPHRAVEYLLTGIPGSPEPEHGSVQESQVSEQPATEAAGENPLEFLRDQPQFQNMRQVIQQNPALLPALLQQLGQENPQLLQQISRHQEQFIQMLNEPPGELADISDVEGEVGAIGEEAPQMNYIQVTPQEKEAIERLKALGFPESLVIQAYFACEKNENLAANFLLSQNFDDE
UniProt P54727: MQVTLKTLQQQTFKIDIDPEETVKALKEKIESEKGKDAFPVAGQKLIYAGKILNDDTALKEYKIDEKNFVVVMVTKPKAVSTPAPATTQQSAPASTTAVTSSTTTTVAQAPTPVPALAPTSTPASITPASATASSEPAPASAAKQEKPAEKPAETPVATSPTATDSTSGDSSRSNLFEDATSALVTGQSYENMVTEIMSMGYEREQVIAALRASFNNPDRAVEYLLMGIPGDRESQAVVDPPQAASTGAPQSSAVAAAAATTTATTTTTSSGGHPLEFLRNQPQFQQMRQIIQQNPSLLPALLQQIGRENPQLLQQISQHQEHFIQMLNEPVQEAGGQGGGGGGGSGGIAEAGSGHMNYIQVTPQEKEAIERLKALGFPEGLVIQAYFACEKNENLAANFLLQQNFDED
UniProt P09874: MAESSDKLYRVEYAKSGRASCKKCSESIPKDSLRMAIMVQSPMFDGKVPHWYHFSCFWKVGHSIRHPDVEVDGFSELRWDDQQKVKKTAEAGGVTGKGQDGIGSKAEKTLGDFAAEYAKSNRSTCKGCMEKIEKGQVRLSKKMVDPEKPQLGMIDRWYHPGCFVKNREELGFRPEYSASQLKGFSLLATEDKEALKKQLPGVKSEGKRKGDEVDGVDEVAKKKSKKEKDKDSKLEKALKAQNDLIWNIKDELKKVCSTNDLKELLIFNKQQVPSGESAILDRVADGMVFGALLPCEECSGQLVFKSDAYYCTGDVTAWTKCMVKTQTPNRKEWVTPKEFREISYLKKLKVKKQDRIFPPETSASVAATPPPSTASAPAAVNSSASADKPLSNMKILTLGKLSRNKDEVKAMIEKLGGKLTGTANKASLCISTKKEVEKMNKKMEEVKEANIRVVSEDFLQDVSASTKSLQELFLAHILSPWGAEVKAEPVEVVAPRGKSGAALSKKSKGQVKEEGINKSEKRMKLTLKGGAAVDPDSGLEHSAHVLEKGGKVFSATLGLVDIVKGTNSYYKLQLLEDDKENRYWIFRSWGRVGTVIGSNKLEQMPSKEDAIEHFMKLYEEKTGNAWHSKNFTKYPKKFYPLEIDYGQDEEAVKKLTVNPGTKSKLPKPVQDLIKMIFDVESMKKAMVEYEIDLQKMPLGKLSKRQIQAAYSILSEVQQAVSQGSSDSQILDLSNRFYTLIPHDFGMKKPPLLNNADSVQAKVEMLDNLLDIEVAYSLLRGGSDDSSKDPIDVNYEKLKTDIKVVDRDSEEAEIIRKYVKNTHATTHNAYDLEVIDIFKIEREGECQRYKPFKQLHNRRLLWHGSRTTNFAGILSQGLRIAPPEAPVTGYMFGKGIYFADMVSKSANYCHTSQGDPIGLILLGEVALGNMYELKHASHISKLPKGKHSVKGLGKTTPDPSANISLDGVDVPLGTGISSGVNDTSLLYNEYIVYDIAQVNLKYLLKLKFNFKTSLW
UniProt P12004: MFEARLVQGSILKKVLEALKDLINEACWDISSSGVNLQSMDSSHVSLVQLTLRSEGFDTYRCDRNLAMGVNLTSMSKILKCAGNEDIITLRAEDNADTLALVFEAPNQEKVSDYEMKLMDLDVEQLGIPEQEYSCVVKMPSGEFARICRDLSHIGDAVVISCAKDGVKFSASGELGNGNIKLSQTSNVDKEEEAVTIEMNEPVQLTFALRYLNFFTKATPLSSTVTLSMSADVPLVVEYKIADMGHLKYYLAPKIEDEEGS

Biological target: 3x-Flag-tagged human DNA2 (human) (UniProt P51530)
Test: affinity purification with mass spectrometry; 3x-Flag-DNA2 from transfected 293T cell extract held on anti-Flag M2 magnetic beads overnight; IP buffer 50 mM HEPES-KOH pH 7.4, 150 mM NaCl, 0.1% NP40, 10% glycerol; one wash with 500 mM NaCl; eluted with 3x-Flag peptide; gel bands analysed by LC/MS; empty vector as control

Row | Substance | binding
1 | RAD23A (from UniProt P54725 1-363) | binds
2 | RAD23B (from UniProt P54727 1-409) | binds

Continued, values first:

Row | binding | Substance
3 | binds | DNA-PK (human (endogenous in 293T)) (enzyme)
4 | binds | PARP1 (from UniProt P09874 1-1014) (enzyme)
5 | binds | PCNA (from UniProt P12004 1-261)
